Assay results: the supplement of paper PMC10849652
The other results are listed elsewhere or left out.

Sequences of proteins named here, by UniProt entry; tags and fusion partners are left off. A change or cut given only in a name is not applied to a line headed by its entry.
UniProt Q8N131: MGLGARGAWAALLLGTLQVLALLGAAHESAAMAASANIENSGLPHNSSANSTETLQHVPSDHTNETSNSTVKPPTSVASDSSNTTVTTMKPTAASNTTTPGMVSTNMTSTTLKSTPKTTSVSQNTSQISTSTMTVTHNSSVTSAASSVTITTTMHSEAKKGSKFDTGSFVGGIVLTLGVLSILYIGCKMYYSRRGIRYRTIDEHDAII
UniProt Q9UM00: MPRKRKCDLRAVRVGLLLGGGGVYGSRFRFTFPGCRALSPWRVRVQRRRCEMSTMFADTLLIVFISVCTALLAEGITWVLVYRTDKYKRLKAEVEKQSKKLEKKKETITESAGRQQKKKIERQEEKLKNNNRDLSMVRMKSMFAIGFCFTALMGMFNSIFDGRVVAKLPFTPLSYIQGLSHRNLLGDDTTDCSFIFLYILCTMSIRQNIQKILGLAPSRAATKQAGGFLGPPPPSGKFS
UniProt Q92544: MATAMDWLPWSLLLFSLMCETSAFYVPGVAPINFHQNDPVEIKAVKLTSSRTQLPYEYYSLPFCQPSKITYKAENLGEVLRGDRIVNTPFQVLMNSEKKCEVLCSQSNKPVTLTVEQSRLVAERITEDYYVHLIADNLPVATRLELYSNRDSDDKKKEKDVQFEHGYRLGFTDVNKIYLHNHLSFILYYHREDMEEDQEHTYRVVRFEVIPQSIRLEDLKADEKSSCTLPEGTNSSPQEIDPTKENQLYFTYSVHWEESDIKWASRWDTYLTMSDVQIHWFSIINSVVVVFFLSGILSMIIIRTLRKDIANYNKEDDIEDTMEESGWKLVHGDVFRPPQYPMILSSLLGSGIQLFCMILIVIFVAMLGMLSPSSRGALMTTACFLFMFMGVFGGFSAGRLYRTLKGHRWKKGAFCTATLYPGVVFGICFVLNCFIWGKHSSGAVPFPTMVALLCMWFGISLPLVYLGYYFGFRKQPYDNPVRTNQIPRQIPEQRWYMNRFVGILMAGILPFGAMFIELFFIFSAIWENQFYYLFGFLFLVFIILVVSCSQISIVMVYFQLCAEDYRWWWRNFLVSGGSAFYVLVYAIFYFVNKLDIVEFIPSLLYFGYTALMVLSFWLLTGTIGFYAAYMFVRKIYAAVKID
UniProt Q9Y5J7: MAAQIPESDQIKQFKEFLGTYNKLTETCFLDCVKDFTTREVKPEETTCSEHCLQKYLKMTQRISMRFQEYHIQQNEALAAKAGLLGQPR
UniProt Q96DC7: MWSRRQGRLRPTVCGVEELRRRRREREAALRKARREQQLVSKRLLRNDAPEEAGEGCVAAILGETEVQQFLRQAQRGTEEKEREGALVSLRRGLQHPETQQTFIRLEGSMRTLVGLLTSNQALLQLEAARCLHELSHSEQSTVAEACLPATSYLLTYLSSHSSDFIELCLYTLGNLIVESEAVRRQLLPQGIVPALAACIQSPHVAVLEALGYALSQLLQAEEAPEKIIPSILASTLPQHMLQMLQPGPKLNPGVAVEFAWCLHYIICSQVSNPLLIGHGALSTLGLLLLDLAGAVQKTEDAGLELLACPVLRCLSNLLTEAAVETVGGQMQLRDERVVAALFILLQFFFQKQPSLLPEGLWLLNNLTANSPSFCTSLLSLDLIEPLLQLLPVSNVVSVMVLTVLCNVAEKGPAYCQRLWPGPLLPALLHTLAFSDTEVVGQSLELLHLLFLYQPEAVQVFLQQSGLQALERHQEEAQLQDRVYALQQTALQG
UniProt Q5U3C3: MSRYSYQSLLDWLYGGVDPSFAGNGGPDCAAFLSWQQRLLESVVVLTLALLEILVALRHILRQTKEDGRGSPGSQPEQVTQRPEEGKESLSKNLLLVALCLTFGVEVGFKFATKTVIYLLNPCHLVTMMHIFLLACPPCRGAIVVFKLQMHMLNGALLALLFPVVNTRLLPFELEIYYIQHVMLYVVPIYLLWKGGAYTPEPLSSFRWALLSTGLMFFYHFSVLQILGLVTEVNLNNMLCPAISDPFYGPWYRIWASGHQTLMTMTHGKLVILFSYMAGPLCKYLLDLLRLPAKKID
UniProt Q96J01: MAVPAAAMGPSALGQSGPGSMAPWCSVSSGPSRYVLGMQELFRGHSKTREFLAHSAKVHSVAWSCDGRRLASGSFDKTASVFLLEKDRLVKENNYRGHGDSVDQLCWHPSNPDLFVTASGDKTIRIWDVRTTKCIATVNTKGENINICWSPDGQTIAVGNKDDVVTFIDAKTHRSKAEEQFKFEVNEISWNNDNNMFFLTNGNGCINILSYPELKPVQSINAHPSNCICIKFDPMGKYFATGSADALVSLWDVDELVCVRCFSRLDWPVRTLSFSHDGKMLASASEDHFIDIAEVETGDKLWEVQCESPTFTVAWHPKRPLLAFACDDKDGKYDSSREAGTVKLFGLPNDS
UniProt Q9Y2W1: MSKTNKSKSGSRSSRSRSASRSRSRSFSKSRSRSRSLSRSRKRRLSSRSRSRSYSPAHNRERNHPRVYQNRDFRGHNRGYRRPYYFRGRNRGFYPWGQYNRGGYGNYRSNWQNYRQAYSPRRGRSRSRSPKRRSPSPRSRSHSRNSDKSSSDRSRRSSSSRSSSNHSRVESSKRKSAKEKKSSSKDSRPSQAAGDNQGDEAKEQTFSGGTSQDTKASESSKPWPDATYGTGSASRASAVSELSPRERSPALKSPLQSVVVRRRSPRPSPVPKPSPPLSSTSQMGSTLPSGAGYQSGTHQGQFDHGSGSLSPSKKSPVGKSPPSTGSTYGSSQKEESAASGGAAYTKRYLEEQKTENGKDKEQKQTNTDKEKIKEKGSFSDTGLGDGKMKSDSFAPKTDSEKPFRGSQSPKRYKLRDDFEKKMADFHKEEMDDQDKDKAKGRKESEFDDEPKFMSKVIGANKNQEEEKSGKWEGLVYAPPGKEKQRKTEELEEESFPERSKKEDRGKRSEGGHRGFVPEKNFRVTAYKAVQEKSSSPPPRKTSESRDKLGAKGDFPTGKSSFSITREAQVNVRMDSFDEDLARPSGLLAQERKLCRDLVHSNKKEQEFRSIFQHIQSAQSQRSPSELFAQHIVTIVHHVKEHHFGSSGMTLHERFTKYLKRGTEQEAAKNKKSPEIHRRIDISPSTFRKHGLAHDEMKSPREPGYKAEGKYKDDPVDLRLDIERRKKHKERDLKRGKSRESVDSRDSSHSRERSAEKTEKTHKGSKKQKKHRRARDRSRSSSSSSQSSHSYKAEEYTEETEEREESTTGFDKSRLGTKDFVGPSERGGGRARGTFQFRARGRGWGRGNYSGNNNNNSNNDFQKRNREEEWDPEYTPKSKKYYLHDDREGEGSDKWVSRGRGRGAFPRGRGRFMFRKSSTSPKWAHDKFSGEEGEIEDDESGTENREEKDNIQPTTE
UniProt P52888, whole entry, looked up: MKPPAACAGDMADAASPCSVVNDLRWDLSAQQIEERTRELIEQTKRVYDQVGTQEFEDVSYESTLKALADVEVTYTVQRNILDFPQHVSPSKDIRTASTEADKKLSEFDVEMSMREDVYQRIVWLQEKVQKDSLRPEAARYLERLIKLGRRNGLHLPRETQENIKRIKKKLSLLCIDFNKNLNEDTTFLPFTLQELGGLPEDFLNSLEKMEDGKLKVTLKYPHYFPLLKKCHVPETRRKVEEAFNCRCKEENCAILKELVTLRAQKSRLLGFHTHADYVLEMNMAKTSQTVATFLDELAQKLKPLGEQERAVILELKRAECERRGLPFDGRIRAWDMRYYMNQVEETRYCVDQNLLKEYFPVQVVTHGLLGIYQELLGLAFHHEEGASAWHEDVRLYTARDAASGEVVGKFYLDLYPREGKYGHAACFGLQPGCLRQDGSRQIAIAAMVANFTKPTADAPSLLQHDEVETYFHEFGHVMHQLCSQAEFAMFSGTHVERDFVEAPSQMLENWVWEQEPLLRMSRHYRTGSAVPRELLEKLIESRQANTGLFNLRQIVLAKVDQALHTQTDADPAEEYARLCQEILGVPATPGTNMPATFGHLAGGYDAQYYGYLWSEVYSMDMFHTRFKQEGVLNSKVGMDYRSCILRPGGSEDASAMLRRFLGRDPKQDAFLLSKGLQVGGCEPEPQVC
UniProt Q86XR7, whole entry, looked up: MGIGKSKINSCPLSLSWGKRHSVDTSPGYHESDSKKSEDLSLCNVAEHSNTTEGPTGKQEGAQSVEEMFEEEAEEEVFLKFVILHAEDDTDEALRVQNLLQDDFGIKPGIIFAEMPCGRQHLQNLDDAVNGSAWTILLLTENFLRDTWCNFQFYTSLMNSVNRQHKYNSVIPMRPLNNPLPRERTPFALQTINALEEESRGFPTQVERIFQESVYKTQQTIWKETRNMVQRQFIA
UniProt O43615: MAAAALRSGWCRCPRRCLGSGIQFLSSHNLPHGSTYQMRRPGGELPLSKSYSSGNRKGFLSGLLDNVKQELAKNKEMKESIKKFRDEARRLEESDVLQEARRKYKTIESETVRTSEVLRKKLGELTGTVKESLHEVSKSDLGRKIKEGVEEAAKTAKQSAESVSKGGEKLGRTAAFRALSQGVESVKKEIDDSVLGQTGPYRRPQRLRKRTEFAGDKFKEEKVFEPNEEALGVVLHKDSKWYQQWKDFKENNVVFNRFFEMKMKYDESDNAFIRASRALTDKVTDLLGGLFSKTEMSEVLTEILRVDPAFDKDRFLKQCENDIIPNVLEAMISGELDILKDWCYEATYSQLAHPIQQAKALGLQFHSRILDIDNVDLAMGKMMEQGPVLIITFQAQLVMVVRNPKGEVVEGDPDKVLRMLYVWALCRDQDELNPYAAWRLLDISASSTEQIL
UniProt Q3LXA3: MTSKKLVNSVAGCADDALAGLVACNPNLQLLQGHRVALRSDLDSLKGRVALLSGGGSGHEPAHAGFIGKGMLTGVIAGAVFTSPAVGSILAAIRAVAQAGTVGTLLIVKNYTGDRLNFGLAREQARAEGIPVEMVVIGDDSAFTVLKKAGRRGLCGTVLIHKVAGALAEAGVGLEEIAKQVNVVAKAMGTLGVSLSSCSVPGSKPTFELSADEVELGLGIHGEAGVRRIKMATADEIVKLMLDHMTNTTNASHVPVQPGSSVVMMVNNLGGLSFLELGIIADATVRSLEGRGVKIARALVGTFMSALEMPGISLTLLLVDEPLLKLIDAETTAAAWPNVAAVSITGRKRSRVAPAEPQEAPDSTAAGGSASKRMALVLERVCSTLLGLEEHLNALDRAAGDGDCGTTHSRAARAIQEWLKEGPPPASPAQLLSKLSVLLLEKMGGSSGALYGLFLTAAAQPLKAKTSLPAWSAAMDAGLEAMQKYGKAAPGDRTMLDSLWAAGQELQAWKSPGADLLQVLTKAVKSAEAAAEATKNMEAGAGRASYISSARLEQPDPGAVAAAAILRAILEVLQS
UniProt Q6I9Y2: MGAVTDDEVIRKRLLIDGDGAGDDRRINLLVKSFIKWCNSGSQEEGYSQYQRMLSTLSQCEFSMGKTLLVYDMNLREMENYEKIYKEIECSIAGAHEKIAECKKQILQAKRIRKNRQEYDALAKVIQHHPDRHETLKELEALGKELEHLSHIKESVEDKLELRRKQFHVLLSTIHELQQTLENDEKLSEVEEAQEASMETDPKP
UniProt O43422: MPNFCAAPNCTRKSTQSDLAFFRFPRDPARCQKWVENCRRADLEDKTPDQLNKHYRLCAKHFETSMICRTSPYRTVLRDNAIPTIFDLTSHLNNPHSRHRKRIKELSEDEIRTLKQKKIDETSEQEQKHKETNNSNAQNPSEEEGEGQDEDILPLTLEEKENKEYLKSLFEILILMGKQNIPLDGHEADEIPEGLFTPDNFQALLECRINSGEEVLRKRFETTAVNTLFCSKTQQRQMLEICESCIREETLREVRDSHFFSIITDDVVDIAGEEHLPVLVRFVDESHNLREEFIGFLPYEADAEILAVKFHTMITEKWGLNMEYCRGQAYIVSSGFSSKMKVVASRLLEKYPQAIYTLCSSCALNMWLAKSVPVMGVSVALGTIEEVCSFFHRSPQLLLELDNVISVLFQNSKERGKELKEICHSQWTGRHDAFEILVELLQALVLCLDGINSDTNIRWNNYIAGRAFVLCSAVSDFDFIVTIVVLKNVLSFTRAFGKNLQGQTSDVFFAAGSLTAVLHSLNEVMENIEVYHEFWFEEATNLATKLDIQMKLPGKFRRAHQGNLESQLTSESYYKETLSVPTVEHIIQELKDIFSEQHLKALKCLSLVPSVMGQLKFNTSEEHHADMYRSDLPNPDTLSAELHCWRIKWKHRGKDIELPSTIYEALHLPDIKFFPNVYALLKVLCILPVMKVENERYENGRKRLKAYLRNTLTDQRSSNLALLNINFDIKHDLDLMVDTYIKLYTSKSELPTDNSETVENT

Experiments:
Assay in all cases: log2 fold change, soluble protein after heating vs DMSO (PISA); higher = thermal stabilisation; K562 lysate, 10 uM; active = over 0.2 and 3.5 SD of the protein, either way, in both replicates (recomputed)
vemurafenib = compound: CCCS(=O)(=O)Nc1ccc(F)c(C(=O)c2c[nH]c3ncc(-c4ccc(Cl)cc4)cc23)c1F [vemurafenib]
Summary of the method: (§1)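 The values are log-two fold changes in thermal stability compared with solvent controls and come from duplicates. They were obtained by TMTpro 16plex LC-MS/MS, with channel sums equalised, on the supernatant after 21,000xg for 90 min. That supernatant came from crude K562 extract at 1 mg/mL protein treated with 10 μM compound for 30 min, heated for 3 min across 48°C-58°C, pooled and brought to 0.5% NP-40 at 4°C.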

[1] = compound: CCCS(=O)(=O)Nc1ccc(F)c(C(=O)c2c[nH]c3ncc(Cl)cc23)c1F
Summary of the method: as §1

barasertib = compound: CCN(CCCOc1ccc2c(Nc3cc(CC(=O)Nc4cccc(F)c4)[nH]n3)ncnc2c1)CCOP(=O)(O)O [barasertib]
Summary of the method: as §1

[2] = compound: CC[C@@H]1C(=O)N(C)c2cnc(Nc3ccc(C(=O)NC4CCN(C)CC4)cc3OC)nc2N1C1CCCC1
Summary of the method: as §1

volasertib = compound: CC[C@@H]1C(=O)N(C)c2cnc(Nc3ccc(C(=O)N[C@H]4CC[C@H](N5CCN(CC6CC6)CC5)CC4)cc3OC)nc2N1C(C)C [volasertib]
Summary of the method: as §1

[3] = compound: CCn1c(C(=O)N(C2CC2)C2CC2)cc2c3c(ncn3C)c(Nc3cc(C)n(C)n3)nc21
Summary of the method: as §1

[4] = compound: CCn1cc(-c2ccnc3[nH]c(-c4cccc(CN(C)C)c4)cc23)c(-c2ccc(NC(=O)N(C)C)cc2)n1
Summary of the method: as §1

[5] = compound: CN1CCC(CNc2ccc3ncc(-c4cccc(OC(F)(F)F)c4)n3n2)CC1
Summary of the method: as §1

saracatinib = compound: CN1CCN(CCOc2cc(OC3CCOCC3)c3c(Nc4c(Cl)ccc5c4OCO5)ncnc3c2)CC1 [saracatinib]
Summary of the method: as §1

sotrastaurin = compound: CN1CCN(c2nc(C3=C(c4c[nH]c5ccccc45)C(=O)NC3=O)c3ccccc3n2)CC1 [sotrastaurin]
Summary of the method: as §1

Measured: log2 fold change

TMEM123 (UniProt Q8N131)
inactive: vemurafenib -0.144 | [1] 0.022 | barasertib -0.058 | [2] -0.056 | volasertib 0.013 | [3] 0.078 | [4] 0.06 | [5] 0.021 | saracatinib 0.002

TLE4 isoform 3 (UniProt Q04727)
inactive: vemurafenib -0.004 | [1] -0.025 | barasertib 0.005 | [2] 0.012 | volasertib -0.014 | [3] 0.001 | [4] -0.071 | [5] 0.05 | saracatinib 0.002 | sotrastaurin 0.034

TMCO1 (UniProt Q9UM00)
inactive: vemurafenib -0.02 | [1] -0.002 | barasertib 0.057 | [2] 0.085 | volasertib -0.012 | [3] 0.085 | [4] 0.058 | [5] -0.006 | saracatinib 0.026 | sotrastaurin 0.02

TM9SF4 (UniProt Q92544)
inactive: vemurafenib 0.063 | [1] -0.007 | barasertib 0.002 | [2] -0.003 | volasertib -0.014 | [3] 0.03 | [4] -0.175 | [5] 0.035 | saracatinib -0.006 | sotrastaurin 0.008

TIMM9 (UniProt Q9Y5J7)
inactive: vemurafenib 0.034 | [1] -0.034 | barasertib 0.191 | [2] 0.004 | volasertib 0.09 | [3] 0.028 | [4] 0.087 | [5] -0.139 | saracatinib 0.004 | sotrastaurin -0.061

TMCO6 isoform 2 (UniProt Q96DC7)
inactive: vemurafenib -0.013 | [1] 0.055 | barasertib 0.019 | [2] 0.045 | volasertib -0.031 | [3] -0.017 | [4] 0.41 | [5] -0.181 | saracatinib 0.011 | sotrastaurin -0.066

TMEM164 (UniProt Q5U3C3)
inactive: vemurafenib 0.179 | [1] 0.108 | barasertib 0.039 | [2] 0.176 | volasertib 0.08 | [3] -0.186 | [5] 0.262 | saracatinib 0.062 | sotrastaurin -0.084
active: [4] -0.827

4 successive entries out of the list so far:
TMCO1 (UniProt Q9UM00)
inactive: vemurafenib -0.02 | [1] -0.002 | barasertib 0.057 | [2] 0.085 | volasertib -0.012 | [3] 0.085 | [4] 0.058 | [5] -0.006 | saracatinib 0.026 | sotrastaurin 0.02

TM9SF4 (UniProt Q92544)
inactive: vemurafenib 0.063 | [1] -0.007 | barasertib 0.002 | [2] -0.003 | volasertib -0.014 | [3] 0.03 | [4] -0.175 | [5] 0.035 | saracatinib -0.006 | sotrastaurin 0.008

TIMM9 (UniProt Q9Y5J7)
inactive: vemurafenib 0.034 | [1] -0.034 | barasertib 0.191 | [2] 0.004 | volasertib 0.09 | [3] 0.028 | [4] 0.087 | [5] -0.139 | saracatinib 0.004 | sotrastaurin -0.061

TMCO6 isoform 2 (UniProt Q96DC7)
inactive: vemurafenib -0.013 | [1] 0.055 | barasertib 0.019 | [2] 0.045 | volasertib -0.031 | [3] -0.017 | [4] 0.41 | [5] -0.181 | saracatinib 0.011 | sotrastaurin -0.066

Next part

THOC3 (UniProt Q96J01)
inactive: vemurafenib 0.003 | [1] 0.025 | barasertib 0.013 | [2] 0.01 | volasertib -0.031 | [3] 0.048 | [4] -0.029 | [5] 0.011 | saracatinib -0.027 | sotrastaurin -0.014

THRAP3 (UniProt Q9Y2W1)
inactive: vemurafenib 0.028 | [1] 0.011 | barasertib 0.02 | [2] 0.051 | volasertib 0.005 | [3] -0.021 | [4] -0.134 | [5] 0.072 | saracatinib 0.024 | sotrastaurin 0.006

THOP1 (UniProt P52888)
inactive: vemurafenib -0.019 | [1] -0.001 | barasertib -0.004 | [2] 0.001 | volasertib 0.023 | [3] -0.013 | [4] -0.039 | [5] 0.044 | saracatinib -0.026 | sotrastaurin -0.012

TICAM2 isoform 2 (UniProt Q86XR7)
inactive: vemurafenib -0.012 | [1] 0.002 | barasertib -0.008 | [2] -0.075 | volasertib 0.033 | [3] -0.032 | [4] -0.12 | [5] 0.037 | saracatinib -0.02 | sotrastaurin -0.005

TIMM44 (UniProt O43615)
inactive: vemurafenib -0.035 | [1] -0.017 | barasertib 0.07 | [2] -0.006 | volasertib -0.034 | [3] 0.022 | [4] -0.02 | [5] -0.065 | saracatinib 0.012 | sotrastaurin -0.026

TKFC (UniProt Q3LXA3)
inactive: vemurafenib -0.025 | [1] -0.007 | barasertib -0.026 | [2] -0.028 | volasertib 0.023 | [3] 0.006 | [4] -0.054 | [5] 0.044 | saracatinib -0.003 | sotrastaurin -0.043

THOC7 (UniProt Q6I9Y2)
inactive: vemurafenib -0.038 | [1] 0.021 | barasertib 0.037 | [2] -0.02 | volasertib 0.029 | [3] 0.007 | [4] 0.014 | [5] -0.038 | saracatinib 0.01 | sotrastaurin 0.027

THAP12 (UniProt O43422)
inactive: vemurafenib 0.01 | [1] 0.007 | barasertib 0.042 | [2] -0.003 | volasertib -0.064 | [3] 0 | [4] 0.028 | [5] -0.094 | saracatinib 0.035 | sotrastaurin 0.025
